This is one part of the list. Shown are side measurements of this screen, not its main read-out; they come without a call. Compounds called inactive in the main read-out are mostly missing here. The note in brackets gives the kind of curve behind each potency; many fits are weak.
Test: qHTS Assay for Lipid Storage Modulators in Drosophila S3 Cells;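 on cell number change: cells counted by Cell Tracker Red CMTPX staining in the red channel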
Conditions: BODIPY lipid droplet fluorescence, 18-24 h; for cell number change: measured here: cell count max response, cells fed with added oleic acid
Procedure, shortened: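 Drosophila S3 cells loaded with oleic acid (400 uM, as added) and compounds at several concentrations; lipid droplets imaged by 488-nm laser-scanning cytometry, 500–530 nm intensity and object ratio to cell channel. Percent activity normalized to 20 uM Triacsin C.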

[1] = measured here: lipid fluorescence (Fed channel) AC50, cells fed with added oleic acid
[2] = measured here: cell number channel AC50, cells fed with added oleic acid

SMILES | AC50 [1] | cell number change | AC50 [2]
Cc1ccc(Nc2ncccc2C(N)=O)cc1 | 0.146 µM [rising, full curve, poor fit] | – | –
CN(c1ccccc1)S(=O)(=O)c1cccc(C(=O)Nc2ccc3c(c2)CCC3)c1 | 0.291 µM [falling, partial curve, poor fit] | -0.704% | –
CCC(C)(C)NC(=O)/C=C/c1cnc2ccccc2n1 | 29.1 µM [rising, single point] | 3.51% | 3.26 µM [rising, partial curve]
O=C(NCCCc1ccccc1)c1ccc(-n2cncn2)c([N+](=O)[O-])c1 | 2.06 µM [falling, partial curve, poor fit] | – | –
COc1ccc([C@H]2CC(=O)C=C(c3cc(Cl)ccc3OC)C2)cc1 | 1.16 µM [falling, single point] | -5.37% | –
COc1ccccc1OCC(=O)Nc1ccc(O)cc1C(=O)O | 4.61 µM [falling, full curve] | 5.6% | –
C/C(=N\NC(=O)c1ccco1)c1ccc(NC(=O)c2ccccc2)cc1 | – | 11.1% | –
COc1cccc(CNc2cnc3ccccc3c2)c1O | 23.1 µM [falling, single point] | -32.4% | 18.4 µM [falling, single point]
Cc1cccc(NC(=S)c2nc3ccccc3s2)c1 | 2.06 µM [rising, partial curve, poor fit] | 2.15% | –
C[C@H]1CC[C@H]2C(=O)N[C@H](Cc3ccccc3)C(=O)N2[C@@H]1c1ccccc1 | 29.1 µM [falling, single point] | -2.73% | –
CN(C)S(=O)(=O)c1ccc(C(=O)Nc2nnc(SCc3cccc4ccccc34)s2)cc1 | 6.51 µM [rising, single point] | -7.12% | 3.66 µM [rising, single point]
Cc1ccc(C(=O)NCCC(=O)NCc2ccco2)cc1 | 1.64 µM [rising, partial curve] | 32.1% | 0.103 µM [rising, full curve, poor fit]
Cc1cc(/C=C(\C#N)C(=O)O)c(C)n1CCC(C)C | 0.82 µM [falling, full curve, poor fit] | -13.2% | –
Cc1cc(/C=N/NC(=O)c2ccccc2F)c(C)n1-c1ccccc1 | – | 14.2% | –
COc1ccc(N(CC(=O)NCc2cccnc2)S(=O)(=O)c2ccc(C)c([N+](=O)[O-])c2)cc1 | – | – | 6.51 µM [rising, single point]
CCOc1cc(C(=O)Nn2cnnc2)cc(OCC)c1OCC | – | 24.3% | –
O=C(O)C1=C[C@H](c2ccc(F)cc2)C[C@H](OCc2ccc(CO)cc2)O1 | – | 40.6% | 6.51 µM [rising, partial curve, poor fit]
COc1cc(C)ccc1OCCON1C(=O)CCC1=O | 29.1 µM [falling, single point] | -36% | 18.4 µM [falling, single point]
C=C1CC2C(CCC3(C)C2CCC3(O)C(C)=O)C2(C)CCC(=O)C=C12 (stereo not drawn) | – | -4.05% | –
Nn1cnc2scc(-c3ccco3)c2c1=O | – | 14.3% | –

SMILES | AC50 [1] | cell number change | AC50 [2]
N#Cc1ccc(NC(=O)Cn2cnc(S(=O)(=O)N3CCOCC3)c2)cc1 | 29.1 µM [rising, single point] | -19.4% | –
O=C(/C=C/c1ccc(Cl)cc1)N(c1ccccn1)C1CCCCC1 | 0.13 µM [falling, full curve, poor fit] | -13.2% | –
Cc1ccc(C(=O)/C=C/c2ccc(F)cc2)o1 | 2.06 µM [rising, partial curve] | -4.1% | –
CCN(CC)C(=O)C1CCCN(Cc2ccc3c(c2)OCO3)C1 (stereo not drawn) | 4.61 µM [rising, full curve] | 0.234% | –
CCOC(=O)C1=NOC(CNc2ncc(C(F)(F)F)cc2Cl)C1 (stereo not drawn) | 20.6 µM [falling, partial curve] | -14.8% | –
O=C(CCC(=O)N1CCCCC1)Nc1ccc(Cl)c(Cl)c1 | 29.1 µM [rising, single point] | 24.2% | –
Cc1cccc(C(=O)Nc2cccc(NC(=O)c3ccccc3)c2)c1 | 3.26 µM [falling, single point] | -15.7% | –
CC(=O)N1CCN(CC(=O)Nc2cc(S(=O)(=O)N3CCOCC3)ccc2C)CC1 | – | 12.9% | –
O=C(O)CCCn1c(=O)c2cccn2c2ccc(F)cc21 | 1.16 µM [rising, full curve] | 32.4% | 0.651 µM [rising, full curve, poor fit]
O=C(CSc1nnc(Cc2ccccc2)n1-c1cccc(Cl)c1)N1CCOCC1 | 0.82 µM [rising, full curve] | -85.1% | –
Cc1sc2nc(C)n(/N=C/c3ccccc3O)c(=O)c2c1C | 1.64 µM [falling, partial curve] | 5.22% | –
O=C(CN1C(=O)c2cccnc2Oc2ccc(Cl)cc21)N1CCCC1 | 18.4 µM [falling, partial curve, poor fit] | -26.4% | –
Cc1ccc(CCN2CCN=C2N(C)C)cc1 | – | 8.98% | 2.31 µM [rising, partial curve, poor fit]
COC(=O)c1cc(-c2c(C)oc3cc(OC(C)C)ccc3c2=O)c(C)o1 | 0.164 µM [rising, full curve] | -23% | –
O=[N+]([O-])c1ccc(Oc2cccc3cccnc23)c([N+](=O)[O-])c1 | 20.6 µM [falling, single point] | – | –
COc1ccc2cc(C(=O)N(C)CC(=O)Nc3ccccc3Br)ccc2c1 | – | 38.1% | 9.2 µM [rising, partial curve, poor fit]
CCN(CC)S(=O)(=O)c1ccc(Cl)c(NC(=O)COC(=O)c2ccc(O)cc2)c1 | 18.4 µM [falling, single point] | 16.5% | –
COc1ccc(-n2c(=O)c3ccccc3n(CC(=O)Nc3cccc(OC)c3)c2=O)cc1 | – | 41.9% | –
Cc1nn(Cc2cccc3ccccc23)c(C)c1NC(=O)c1cccnc1 | 1.03 µM [rising, full curve] | 38% | 2.06 µM [rising, partial curve, poor fit]
CSc1ccc(S(=O)(=O)NCC(=O)OCC(=O)N2CCCCC2C)cc1[N+](=O)[O-] (stereo not drawn) | – | -75% | 9.2 µM [falling, partial curve]

SMILES | AC50 [1] | cell number change | AC50 [2]
O=C1CCN(Cc2ccccc2)CCN1[C@H](CSc1ccccc1)Cc1ccccc1 | 0.731 µM [rising, full curve] | 14.1% | 0.82 µM [rising, full curve]
Cc1cc(C)n2nc(SCC(=O)c3cc(C)n(-c4cc(C)on4)c3C)nc2n1 | 1.3 µM [falling, full curve, poor fit] | -27.3% | 1.46 µM [falling, full curve, poor fit]
COc1ccccc1-c1cc(C(F)(F)F)nc(S(=O)(=O)CCCC(=O)N2CCCCC2C)n1 (stereo not drawn) | 20.6 µM [falling, partial curve] | -53.7% | 18.4 µM [falling, partial curve, poor fit]
N#Cc1ccc(/C=C/C(=O)c2ccco2)cc1 | 29.1 µM [falling, single point] | -2.34% | –
CCCCCN(C(=O)CCC(=O)OCC(=O)Nc1cccc(CC)c1)c1c(N)n(CCCC)c(=O)[nH]c1=O | – | 36.4% | 29.1 µM [rising, single point]
O=C1c2ccccc2C(=O)N1CC1c2ccccc2CCN1S(=O)(=O)c1cnc[nH]1 (stereo not drawn) | 6.51 µM [falling, single point] | -4.8% | 0.651 µM [falling, partial curve, poor fit]
COc1ccc(C2Nc3ccccc3C(=O)N2c2ccc(C)cc2)cc1Cn1nnc2ccccc21 (stereo not drawn) | 6.51 µM [falling, single point] | -23.1% | 4.11 µM [falling, full curve, poor fit]
COc1ccc(CN2C(=O)CSC2c2ccccn2)cc1 (stereo not drawn) | 0.0231 µM [rising, full curve, poor fit] | 25.8% | –
Cc1ccc(S(=O)(=O)CCC(=O)OCc2ccccc2F)cc1 | – | 2.46% | 6.51 µM [falling, single point]
Cc1ccc(NC(=O)C(C)c2ccc([N+](=O)[O-])cc2)cc1Cl (stereo not drawn) | 29.1 µM [falling, single point] | -23% | –
O=C(NCCCn1ccnc1)/C(=C\c1cccs1)NC(=O)c1cccs1 | 4.61 µM [rising, partial curve, poor fit] | 15.6% | –
O=C(Nc1ccccc1)c1ccccc1OS(=O)(=O)c1ccccc1 | 1.16 µM [rising, partial curve] | -23% | –
Oc1cccc(Oc2ncc(C(F)(F)F)cc2Cl)c1 | – | -16.6% | –
COc1cc(NC(=S)NC(=O)c2ccc(C(C)(C)C)cc2)ccc1NC(=O)c1cccs1 | – | 4.15% | –
O=C(Cc1c(F)cccc1Cl)N1CCN(S(=O)(=O)c2cccs2)CC1 | 0.092 µM [falling, full curve, poor fit] | -6.87% | –
CC(=O)Oc1ccc2nc(/C=C/c3ccc(C=O)cc3)oc(=O)c2c1 | – | -11.6% | –
CN(CCc1ccccn1)S(=O)(=O)c1ccc(F)cc1 | 18.4 µM [falling, single point] | -25.2% | 0.58 µM [falling, full curve, poor fit]
CCC1Sc2ccc(S(=O)(=O)CCC(=O)NC3CCCCCC3)cc2NC1=O (stereo not drawn) | 29.1 µM [falling, single point] | -22.6% | –
O=C(OCC(=O)N1CCCCCC1)c1n[nH]c(=O)c2ccccc12 | 29.1 µM [falling, single point] | -11.3% | 6.51 µM [falling, single point]

Full records from above:
Cc1sc2nc(C)n(/N=C/c3ccccc3O)c(=O)c2c1C as listed: AC50 [1]: 1.64 µM [falling, partial curve]; cell number change: 5.22%
O=C(Cc1c(F)cccc1Cl)N1CCN(S(=O)(=O)c2cccs2)CC1 as listed: AC50 [1]: 0.092 µM [falling, full curve, poor fit]; cell number change: -6.87%
C/C(=N\NC(=O)c1ccco1)c1ccc(NC(=O)c2ccccc2)cc1 as listed: cell number change: 11.1%
CSc1ccc(S(=O)(=O)NCC(=O)OCC(=O)N2CCCCC2C)cc1[N+](=O)[O-] (stereo not drawn) as listed: cell number change: -75%; AC50 [2]: 9.2 µM [falling, partial curve]
